Data published in patent US12492373B2, “Production method for nerve tissue” (Racthera Co., Ltd., priority 2014, dated 2025).
Some entries share one result that the patent states for a list of compounds.

Test system: human iPS cells (1231A3 strain)
Experiment: Immunostaining of aggregate sections for retinal tissue markers Chx10, Rx
Assay type: cell-based
Conditions: SB431542 or LDN193189 in step 1, SAG 300 nM in step 2, without BMP4 in step 3; StemFit; day 23
Experimental: Here, as step 3, culturing was performed under the following condition 1 and condition 2: Under condition 1(+BMP), on day 6 after the start of suspension culturing, the medium was changed to a medium free of Y27632 and containing human recombinant BMP4 (manufactured by R&D) such that the final concentration of exogenous human recombinant BMP4 was 1.5 nM (55 ng/ml) (FIG. 6B, D). Under condition 2(−BMP), on day 6 after the start of suspension culturing, a half amount of the medium was changed to a medium free of Y27632 and free of a BMP signal transduction pathway activating substance, without adding exogenous human recombinant BMP4 (FIG. 6A, C).
The thus-prepared cell aggregates on day 23 after the start of suspension culturing, which were produced from the above iPS cells that underwent a preconditioning treatment in step 1 as a starting material were fixed with 4% para-formaldehyde to prepare frozen sections. These frozen sections were immunostained for Chx10 (anti-Chx10 antibody, Exalpha, sheep), which is one of the retinal tissue markers, or Rx (anti-Rx antibody, Takara, guinea pig), which is one of the retinal tissue markers. These immunostained sections were observed under an inverted fluorescence microscope.
Cell aggregate were prepared according to the method described in Example 8 under conditions in which human iPS cells using StemFit medium as a feeder-free medium were used as a starting material, TGFβR inhibiting substance (SB431542) or BMPR inhibiting substance (LDN193189) was used in step 1, Shh signal transduction pathway activating substance was used in step 2, and BMP signal transduction pathway activating substance was added or not added in step 3. Neural tissues were formed in all the aggregates formed under all these conditions on day 23 after the start of suspension culturing. The above cell aggregates were fixed with 4% para-formaldehyde to prepare frozen sections. These frozen sections were immunostained for Chx10 (anti-Chx10 antibody, Exalpha, sheep), which is one of the retinal tissue markers, or Rx (anti-Rx antibody, Takara, guinea pig), which is one of the retinal tissue markers. These immunostained sections were observed under an fluorescence microscope. […] Furthermore, it was found from the analysis of serial sections that, in a neural tissue having a high (not less than 95%) proportion of Chx10-positive cells, Rx is also strongly positive (FIG. 9B, D, F, H).
Cell aggregates were prepared according to the method described in Example 10 by using, as a starting material, human iPS cells using Essential 8 medium as a feeder-free culturing, under conditions that TGFβR inhibiting substance (SB431542) are used in step 1, a Shh signal transduction pathway activating substance are used in step 2, and a BMP signal transduction pathway activating substance are added or are not added in step 3. The cell aggregates on day 18 after the start of suspension culturing were each fixed with 4% para-formaldehyde to prepare frozen section. These frozen sections were immunostained for Chx10 (anti-Chx10 antibody, Exalpha, sheep), which is one of the retinal tissue markers, or Rx (anti-Rx antibody, Takara, guinea pig), which is one of the retinal tissue markers, and observed under a fluorescence microscope. […] Furthermore, it was found from the analysis of serial sections that, in a neural tissue having a high (not less than 95%) proportion of Chx10-positive cells, Rx is also strongly positive. […]
A Cell aggregate was formed on day 18 after the start of suspension culturing under every conditions, and a neural tissue was formed (FIG. 14, upper panel). The above cell aggregates on day 18 after the start of suspension culturing were each fixed with 4% para-formaldehyde to prepare frozen section. […]

SMILES: NC(=O)c1ccc(-c2nc(-c3ccc4c(c3)OCO4)c(-c3ccccn3)[nH]2)cc1 [SB431542, 4-(5-benzol[1,3]dioxol-5-yl-4-pyridin-2-yl-1H-imidazol-2-yl)-benzamide]
- Rx-strong positive (corresponding to retina): less than 3%
- Rx-weak positive (corresponding to neural tissue other than retina): less than 7%
- proportion of Chx10-positive cell: less than 3%
- proportion of Rx-positive cells in the total cells: less than 10%

SMILES: c1ccc2c(-c3cnn4cc(-c5ccc(N6CCNCC6)cc5)cnc34)ccnc2c1 [LDN193189, 4-[6-(4-piperazin-1-ylphenyl)pyrazolo[1,5-a]pyrimidin-3-yl]quinoline]
- Rx-strong positive (corresponding to retina): less than 3%
- Rx-weak positive (corresponding to neural tissue other than retina): less than 7%
- proportion of Chx10-positive cell: less than 3%
- proportion of Rx-positive cells in the total cells: less than 10%
